From article PMC11727051
Results are given in words; binding and its absence hold for the method and conditions named. In cells and extracts the contact can be indirect. Some entries that bind do so weakly or less than the wild type.

Sequences of proteins named here, by UniProt entry; tags and fusion partners are left off.
UniProt P18272: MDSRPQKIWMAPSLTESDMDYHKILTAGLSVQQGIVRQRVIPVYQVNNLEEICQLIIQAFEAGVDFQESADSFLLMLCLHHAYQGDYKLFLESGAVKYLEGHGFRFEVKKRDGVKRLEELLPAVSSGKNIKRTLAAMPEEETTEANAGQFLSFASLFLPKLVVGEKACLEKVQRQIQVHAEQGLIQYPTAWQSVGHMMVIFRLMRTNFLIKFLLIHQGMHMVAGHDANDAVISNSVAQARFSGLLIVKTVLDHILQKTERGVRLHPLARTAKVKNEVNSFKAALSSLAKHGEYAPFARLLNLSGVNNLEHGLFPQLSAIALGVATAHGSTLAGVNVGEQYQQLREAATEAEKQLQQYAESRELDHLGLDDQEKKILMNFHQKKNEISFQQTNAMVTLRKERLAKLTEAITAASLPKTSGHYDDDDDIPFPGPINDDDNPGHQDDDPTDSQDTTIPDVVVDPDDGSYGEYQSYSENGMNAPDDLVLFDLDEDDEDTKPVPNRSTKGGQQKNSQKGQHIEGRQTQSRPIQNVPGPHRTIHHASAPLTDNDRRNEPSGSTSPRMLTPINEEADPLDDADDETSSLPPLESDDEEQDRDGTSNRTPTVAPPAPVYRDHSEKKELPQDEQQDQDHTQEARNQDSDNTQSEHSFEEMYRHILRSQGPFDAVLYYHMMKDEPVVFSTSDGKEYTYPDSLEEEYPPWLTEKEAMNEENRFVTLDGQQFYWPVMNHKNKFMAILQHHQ
UniProt Q15172: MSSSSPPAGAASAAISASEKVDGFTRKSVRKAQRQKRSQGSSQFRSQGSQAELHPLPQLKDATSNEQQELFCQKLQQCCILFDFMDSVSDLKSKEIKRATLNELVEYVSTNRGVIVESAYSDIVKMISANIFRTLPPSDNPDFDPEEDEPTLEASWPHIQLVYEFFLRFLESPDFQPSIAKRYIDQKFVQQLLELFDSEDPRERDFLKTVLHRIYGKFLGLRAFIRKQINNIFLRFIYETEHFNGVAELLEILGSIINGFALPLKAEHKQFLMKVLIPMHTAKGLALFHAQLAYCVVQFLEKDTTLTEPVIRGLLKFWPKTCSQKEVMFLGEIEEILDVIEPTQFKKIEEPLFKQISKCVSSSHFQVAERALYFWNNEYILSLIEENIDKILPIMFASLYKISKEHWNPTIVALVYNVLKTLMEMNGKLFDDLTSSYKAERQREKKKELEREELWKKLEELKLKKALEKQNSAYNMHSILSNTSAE
UniProt Q05323: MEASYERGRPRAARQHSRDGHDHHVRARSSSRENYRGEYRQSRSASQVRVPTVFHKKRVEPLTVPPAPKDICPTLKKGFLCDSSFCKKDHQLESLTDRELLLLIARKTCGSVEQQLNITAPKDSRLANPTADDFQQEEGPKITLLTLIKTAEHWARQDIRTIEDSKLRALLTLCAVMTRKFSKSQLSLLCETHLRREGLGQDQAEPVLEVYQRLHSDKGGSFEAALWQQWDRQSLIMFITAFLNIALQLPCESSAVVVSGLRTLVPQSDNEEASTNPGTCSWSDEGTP

Target: Ebola virus nucleoprotein, wild type, flag-tagged (NPwt) (Ebola virus (EBOV)) (UniProt P18272)
Assay: co-IP

Row | Substance | binding
1 | PP2A regulatory subunit B56α, myc-tagged (PP2A-B56α-myc) (from UniProt Q15172 1-486) | binds
2 | Ebola virus VP30 (from UniProt Q05323 1-288) | binds
